Laboratory results as given in paper PMC3482188.
No constants are given. Whether binding was seen depends on the method and setting. Binding seen in cells or lysates may run through a third protein. Binding can be weak; no strength is given.

Biological target: T1, Serum response factor (SRF) (rat (endogenous in RAOSMC)) (UniProt D3ZHH8)
T1 sequence: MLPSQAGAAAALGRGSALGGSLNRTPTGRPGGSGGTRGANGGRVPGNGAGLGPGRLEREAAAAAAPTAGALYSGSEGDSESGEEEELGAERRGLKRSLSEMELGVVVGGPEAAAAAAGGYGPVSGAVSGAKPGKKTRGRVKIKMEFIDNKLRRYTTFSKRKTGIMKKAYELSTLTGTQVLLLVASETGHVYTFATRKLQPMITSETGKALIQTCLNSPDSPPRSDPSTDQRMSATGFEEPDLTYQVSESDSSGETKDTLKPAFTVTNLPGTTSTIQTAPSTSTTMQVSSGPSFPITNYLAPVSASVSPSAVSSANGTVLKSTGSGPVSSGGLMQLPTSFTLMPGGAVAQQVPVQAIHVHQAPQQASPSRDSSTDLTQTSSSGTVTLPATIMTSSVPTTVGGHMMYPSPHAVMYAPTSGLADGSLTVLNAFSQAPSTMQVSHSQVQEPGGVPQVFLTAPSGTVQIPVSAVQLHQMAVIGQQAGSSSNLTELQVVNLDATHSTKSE
Assay: co-IP; RAOSMC lysate incubated with anti-SRF antibody and Protein A beads overnight at 4°C; beads washed three times, eluted in sample loading buffer with DTT; Western blot with an antibody against Baf60c; IgG control

- binding: binds
Substance: BAF60c (rat (endogenous in RAOSMC))
